# Data taken from PubChem BioAssay AID1794845 (National Center for Advancing Translational Sciences (NCATS), 2023).
# Amino acid sequences for entries named in this document (tags omitted). A change or cut given only in a name is not applied to a line headed by its entry.
# UniProt C7C422: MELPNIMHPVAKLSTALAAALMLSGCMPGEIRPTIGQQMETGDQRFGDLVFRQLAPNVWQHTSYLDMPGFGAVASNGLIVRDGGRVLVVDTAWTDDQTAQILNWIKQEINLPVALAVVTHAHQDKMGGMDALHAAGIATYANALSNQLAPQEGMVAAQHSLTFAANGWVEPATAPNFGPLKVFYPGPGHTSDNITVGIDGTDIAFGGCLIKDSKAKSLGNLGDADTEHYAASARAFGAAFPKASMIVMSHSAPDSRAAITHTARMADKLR
# Hit rate of the full screen: of about 6,900 compounds, fewer than 10 were called active. Calls come from the whole dose curve; as a rule, active = well fitted curve in the direction sought with a large enough effect; inconclusive = small, poorly fitted or top-dose-only effect, or another doubt; inactive = no such curve, though single readings can be large or run the other way. Some of the results follow.
# Target: Metallo-beta-lactamase type 2 (Klebsiella pneumoniae) (UniProt C7C422)
# Experiment: qHTS to identify inhibitors of the New Delhi Metallo-beta-lactamase (NDM): primary screen against the NCATS Gemini Collection; note: % of control where 0% means no effect
# Conditions: NDM-1 enzyme, meropenem hydrolysis, absorbance 300 nm; at 38.4 µM (top of the series) unless noted
# Summary of the method: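 Meropenem hydrolysis (50 uM final) by 2 nM NDM-1 read as 300 nm absorbance after 30 min, following >30 min compound–enzyme preincubation in HEPES pH 7.0 with 1 uM ZnSO4 and 0.01% Tween20.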
row,Compound,activity % (negative = inhibition)
1,Cc1ccc(C(=O)N2CCC(N3C(=O)CCC3C(=O)NCc3cccnc3)CC2)cc1F (stereo unspecified),inactive: -0.65%
2,CCCN(Cc1nccn1C)C(=O)c1cn(Cc2ccc(F)cc2)nn1,inactive: 2.46%
3,COc1ccc(OC)c(NC(=O)Cc2cccn2-c2ccc(Cl)cc2)c1,inactive: 0.779%
4,Cc1ccc(-c2cc3n(n2)CCCN(C(=O)c2cc(CN4CCOCC4)on2)C3)o1,inactive: 17.7%
5,CS(=O)(=O)NC1CCN(Cc2cc(=O)c3cc(C(N)=O)ccc3[nH]2)CC1,inactive: 5.24%
6,COc1ccccc1/C=C/CN1CCn2nc(CO)cc2C1,inactive: 19.3%
7,Cc1cccc(CCN2CCC3(CC2)C(C(=O)O)CC(=O)N3C)n1 (stereo unspecified),inactive: -5.02%
8,Cc1cnc(C2CCOCC2)n1CCN,inactive: 39.8%
9,CC1CCN(C(=O)C2(c3ccc(NC(=O)C4CC4)cc3)CCCCC2)CC1,inactive: 2.62%
10,CC1CCCCN1C(=O)C1COC2(CCN(C(=O)c3ccco3)CC2)N1C(=O)c1ccccc1 (stereo unspecified),inactive: -1.45%
11,COc1ccccc1CCC(=O)N1CC(C(=O)N(C)C)C2(CCOCC2)C1 (stereo unspecified),inactive: -0.28%
12,O[C@H]1CC[C@@H](Cc2cc(-c3ccccn3)on2)O[C@@H]1CN(Cc1ccccc1)Cc1ccccc1,inactive: -1.45%
13,CN1C(=O)COC[C@@H]1[C@H](O)c1ccc(NC(=O)Nc2ccccc2)cc1,inactive: -2.29% [at 57.5 µM]
14,O=C(N1CCCCC1)C1(c2ccc(Cl)cc2)CCOCC1,inactive: 0.0752%
15,CC(C)Oc1ccc2c(NC(=O)c3ccc(=O)n(C)n3)nn(CC(F)(F)F)c2c1,inactive: 18.6%
16,Cc1ccc(C)c(CC(=O)NCc2cc3n(n2)CCN(C(=O)N(C)C)C3)c1,inactive: -10.3%
17,COc1ccc(CN2C[C@@H](F)[C@@H](OCc3nc4ccncc4[nH]3)C2)cc1,inactive: 5.8% [at 57.5 µM]
18,COc1ccc(NC(=O)C2CCCN(c3cnn(Cc4ccccc4)c(=O)c3)C2)cc1OC (stereo unspecified),inactive: 2.94%
19,c1coc(-c2ccnc3nc(C4CCC4)nn23)c1,inactive: 9.61%
20,Cc1cc(C)n(-c2cccc(CN(C)C(=O)c3cn(Cc4ccc(Cl)cc4)nn3)c2)n1,inactive: 9.75%
21,Cc1noc(C)c1-c1ccc2c(n1)CN(Cc1nc3ccccc3s1)C(=O)CO2,inactive: 3.25% [at 57.5 µM]

row,Compound,activity % (negative = inhibition)
1,Cc1noc2ncnc(N3CCC4(CC3)CC(c3ccccc3)CN(C)C4)c12 (stereo unspecified),inactive: 19.8%
2,CNC(=O)[C@@H]1CN(C(=O)CCc2cccc(OC)c2)C[C@H]1c1nc(C)no1,inactive: -9.57%
3,O=C(CN1C(=O)C2(CCNCC2)Nc2ccccc21)NC1CCCCCC1,inactive: 3.33%
4,CC1(c2cccnc2)N(CC2CC2)C(=O)OC12CCN(C(=O)c1cccc(O)c1)CC2 (stereo unspecified),inactive: -2.88% [at 57.5 µM]
5,CN(C)Cc1nnc(C2CC(NC(=O)c3nc4ccccc4[nH]3)C2)n1C (stereo unspecified),inactive: 17%
6,CN(CCc1ccccn1)C(=O)c1ccc2c(c1)[nH]c(=O)n2C1CCC(O)CC1 (stereo unspecified),inactive: 12.3%
7,COc1ccc(-c2cc(C[C@@H]3CC[C@H](O)[C@@H](CNC4CCN(C(C)=O)CC4)O3)no2)cc1,inactive: 2%
8,O=C(N1CCC(NS(=O)(=O)c2cccs2)CC1)N1CC2CC(C1)[C@H]1CCCC(=O)N1C2 (stereo partly specified),inactive: -2.64%
9,Fc1ccccc1-c1noc(N2CCCCC2)n1,inactive: 1.7%
10,COc1cccc(C(=O)Nc2ccc(-c3ccc(OC)nn3)cc2)c1,inactive: 20.5%
11,O=C(Cc1ccccc1)NCC1CCCCC(=O)N1 (stereo unspecified),inactive: 8.97%
12,Cc1cc(C(=O)N2CCc3ncnc(N4CCOCC4)c3CC2)n(C)n1,inactive: 23%
13,CCCc1cc(N2CCC(NCc3c(F)cccc3Cl)CC2)nc(C)n1,inactive: 5.08%
14,COC[C@H]1CCCN1C(=O)C[C@@H]1O[C@H](CNS(C)(=O)=O)[C@@H](O)[C@H]1O,inactive: 11.8% [at 57.5 µM]
15,COc1ccc(F)cc1-c1cccc(C(=O)NCC(=O)N2CCN(C)CC2)c1,inactive: -0.0041%
16,COc1cc(CN2CCN(c3noc(C(C)C)n3)CC2CCO)cc(OC)c1 (stereo unspecified),inactive: 0.477%
17,O=C(Cc1ccccc1)N1CCCC2(CC(c3cccc(C(F)(F)F)c3)=NO2)C1 (stereo unspecified),inactive: 11.8%
18,COc1ccccc1OCCNC(=O)C1CCN(c2cc(C(F)(F)F)nc(C)n2)CC1,inactive: 3.98%
19,COc1cccc(CN2CCOC[C@H](O)C2)c1,inactive: 8.9% [at 77.1 µM]
20,COc1ccccc1-c1cc(C(=O)N2CCOCC2)nn2cccc12,inactive: 4.4%

# Three compounds already listed, arranged by count of non-hydrogen atoms, descending:
row,Compound,activity % (negative = inhibition)
18,COc1ccccc1OCCNC(=O)C1CCN(c2cc(C(F)(F)F)nc(C)n2)CC1,inactive: 3.98%
15,COc1ccc(F)cc1-c1cccc(C(=O)NCC(=O)N2CCN(C)CC2)c1,inactive: -0.0041%
13,CCCc1cc(N2CCC(NCc3c(F)cccc3Cl)CC2)nc(C)n1,inactive: 5.08%
